Source: patent US8017772B2, “Substituted tetrahydropyrrolopyrazine compounds and the use thereof in the treatment and/or inhibition of pain” (Gruenenthal GmbH, priority 2006, dated 2011)
For at least one compound, name, drawing or mass did not settle the structure.

Biological target: hKCNQ2/3 (Homo sapiens, UniProt O43525+O43526)
Test: Voltage clamp (patch-clamp) measurements on stably transfected hKCNQ2/3 CHO-K1 cell line
Assay type: cell-based
Conditions: potential −40 mV, relative to retigabine (RG = 1)
Description: Voltage Clamp Measurements
In order to confirm a KCNQ2/3-agonistic action of the substances electrophysiologically, patch-clamp measurements (Hamill et al., 1981) were carried out in voltage clamp mode on a stably transfected hKCNQ2/3 CHO-K1 cell line. After formation of the gigaseal, the cells were first clamped at a holding potential of −60 mV. Thereafter, depolarizing voltage jumps were applied up to a potential of +20 mV (increment: 20 mV, duration: 1 second) in order to confirm the functional expression of KCNQ2/3-typical currents. The testing of the substances was carried out at a potential of −40 mV. The increase in current induced by retigabine (10 at −40 mV was first recorded as a positive control on each cell. After complete washing out of the retigabine effect (duration: 80 s), the test substance was applied. • See: Hamill O P, Marty A, Neher E, Sakmann B, Sigworth F J.: Improved patch-clamp techniques for high-resolution current recording from cells and cell-free membrane patches. Pflugers Arch. 1981 August; 391(2):85-100.

O=C(CCC(=O)N1CCn2cccc2C1c1cccs1)NCc1cccc(C(F)(F)F)c1 (stereo not shown) [Example 76, 4-oxo-4-(1-(thiophen-2-yl)-3,4-dihydropyrrolo[1,2-a]pyrazin-2(1H)-yl)-N-(3-(trifluoromethyl)benzyl)butanamide]
MAN rel eff @ 10 μM [RG = 1]: 0.75
